# Laboratory results as given in patent US20070128627A1 (US Dept. of Health and Human Services, published 2007).
# Results are given in words; binding and its absence hold for the method and conditions named.
# B1: VP16/6-6CL1 (protein)
# chain: ENTPKENSMKVREWNNKGGHCCKLETQELEPKFNLMQILQDNGNLSKMQARIAFSAYLQHVQIRLMKDSGGQTFSASWAAKEDEQMELVVRFLKRASNNLQHSLRMVLPSRRLALLERRRILAHQLGDFIIVYNKETEQMAEKKSKKKVEEEEEDGVNMENFQEFIRQASEAELEEVLTFYTQKNKSASVFLGTHSKISKNNNNYSDSGAKG
# Experiments:
# PCAF = assay: mammalian two-hybrid
# mammalian two-hybrid = substrate: CBP; assay: mammalian two-hybrid
binder,measurement,setting,value
B1,binding,PCAF,no binding
same,binding,mammalian two-hybrid,no binding
